Source: ChEMBL document CHEMBL3988442, “University of Dundee, Small-Polar-MMV Screening Library” (2021).

Protein sequences, listed by entry. Tags and fused reporters are not part of them.
UniProt E9BF75, entry or part of it: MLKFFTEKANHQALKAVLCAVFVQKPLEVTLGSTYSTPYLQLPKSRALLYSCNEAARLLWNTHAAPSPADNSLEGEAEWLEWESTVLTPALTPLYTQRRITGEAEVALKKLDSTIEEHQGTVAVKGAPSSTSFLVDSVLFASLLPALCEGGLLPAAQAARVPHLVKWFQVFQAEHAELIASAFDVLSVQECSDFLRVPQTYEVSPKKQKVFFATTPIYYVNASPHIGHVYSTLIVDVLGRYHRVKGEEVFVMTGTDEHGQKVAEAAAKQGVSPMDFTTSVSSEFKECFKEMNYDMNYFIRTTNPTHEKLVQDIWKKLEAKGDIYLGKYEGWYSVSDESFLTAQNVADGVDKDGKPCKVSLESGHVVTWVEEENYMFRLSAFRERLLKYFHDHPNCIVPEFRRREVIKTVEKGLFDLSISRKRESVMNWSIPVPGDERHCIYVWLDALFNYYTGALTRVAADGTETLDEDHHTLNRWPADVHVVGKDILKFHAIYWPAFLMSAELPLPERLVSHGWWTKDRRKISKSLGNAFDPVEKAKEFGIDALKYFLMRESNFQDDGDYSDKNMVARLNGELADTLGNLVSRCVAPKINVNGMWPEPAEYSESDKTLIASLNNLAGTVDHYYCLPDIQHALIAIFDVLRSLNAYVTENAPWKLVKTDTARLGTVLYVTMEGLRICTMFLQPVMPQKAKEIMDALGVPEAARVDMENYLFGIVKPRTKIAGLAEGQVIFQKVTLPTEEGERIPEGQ

All values are in %. How 0% and 100% were set is not recorded. Most values in the screen are low, and negative values occur. This is an unselected part of the compounds tested. A dash means the value is not listed here; it may have been measured.

A: 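Primary screen of methionyl-tRNA synthetase; the read-out is not stated. Target: Methionyl-tRNA synthetase (putative), Leishmania donovani (UniProt E9BF75). The test concentration is not given. The values are filed as inhibition. About 68,000 compounds were tested under these conditions; 0.035% (about 24) showed 50% or more at least once.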
B: 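Assay on Mycobacterium tuberculosis, filed only as a heat shock assay from Cornell; the read-out is not stated. The concentration is filed as 10 mM, unlikely as a test dose, so the dose is not known. The record gives no direction; compounds that gave an IC50 in retests scored well above the rest, so higher reads as stronger inhibition. Size under these conditions: about 69,000 compounds, about 930 of them at 50% or above in at least one test.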

structure	A	B
CSCc1ccc(CNCCCN2CCOCC2)o1	5.108	-26.92
NS(=O)(=O)N1CCc2ccc(NC(=O)Cc3ccccc3F)cc21	14.13	8.665
O=C(CN1CCCC1Cn1cncn1)NCCOc1ccccc1 (centres unmarked)	17.04	-2.675
O=c1c2ccc(C(F)(F)F)cc2ncn1CCCN1CCCCC1CO (centres unmarked)	-0.2618	-13.03
Cc1ccc(C(=O)N2C[C@@H]3COC[C@]3(COCc3cccnc3)C2)cn1	7.092	-
NC(=O)C1CCN(C(=O)CCn2ccc3ccc(F)cc32)CC1	17.27	-13.42
CC(C)n1cnnc1C1CCCN(S(=O)(=O)CCCC#N)C1 (centres unmarked)	7.186	-9.022
COCC(=O)N1CCC2(CC1)COc1ccccc1S(=O)(=O)N(C)C2	13.2	-33.67
N#Cc1ccc(N2CCC3(CC2)CC(OCc2cccnc2)CO3)cc1.O=C(O)C(F)(F)F (centres unmarked)	-	-9.25
OCc1cccc(CNCc2cccc3c2OCCO3)c1	11.26	-4.681
O=C(O)C(F)(F)F.[H][C@@]12C[C@H](C(=O)N3CCCCO3)CN(Cc3ccccc3C)[C@]1([H])CCO2	-	-3.563
Cc1ccccc1C(=O)NCC(=O)NCc1ccccn1	9.214	-18.98
CSCc1cccc(S(=O)(=O)N2CCCC2)c1	-19.85	-3.315
Cc1ccc(CN(CCCn2ccnc2)Cc2c[nH]nc2C(C)(C)C)s1	13.5	-
[H][C@@]12CCN(S(=O)(=O)c3cccnc3)C[C@]1(c1nc(C)no1)CCO2	-	40.5
[H][C@@]12C[C@H](C(=O)Nc3ccccc3)[C@@]([H])(CN(S(=O)(=O)C3CC3)C1)O2	-	2.732
[H][C@]12CC[C@]([H])(CN(S(=O)(=O)N(C)C)C1)N(C(=O)Cn1ccnc1CC)C2	-	-35.8
CN(C)C(=O)N1Cc2ccccc2C2(CCNCC2)C1.Cl	-	-16.47
CC1(C)CCC(C(=O)O)c2ccccc21 (centres unmarked)	15.75	1.7
CC(C)(C)C(=O)N1CC[C@H]2NC(=O)N(c3ccc(F)cc3)C(=O)[C@H]21	7.692	-
O=C1NCCc2c1sc1ccc(C(=O)N3CC[C@H](CO)[C@H](O)C3)cc21	17.39	-4.999
[H][C@@]12CCN(C)[C@@]1([H])CCN2S(=O)(=O)Cc1ccc(C)cc1	-	-14.82
Cc1ccc(-c2noc(CNCC3CN(C)CCO3)n2)cc1F (centres unmarked)	12.63	3.578
N[C@H]1CN(S(=O)(=O)c2ccccc2)C[C@@H]1C1CC1	12.15	-29.09
CC(C)(C(=O)NCC1CC1)c1ccccc1F	15.04	4.713
CCN(C)c1ncnc2c1CCN(Cc1ccoc1)CC2	13.3	3.721
CC(C)NC(=O)NC[C@@]1(COc2cnccn2)C[C@@H](O)[C@@H](O)C1	14.29	-
CCCC1(CO)CCCN(c2ncnc3c2c(C)nn3C)C1 (centres unmarked)	11.76	-6.492
O=C(O)C(F)(F)F.O=C(O)C(F)(F)F.[H][C@@]12CCN(Cc3ccoc3)[C@]1([H])CC[C@@H](C(=O)NCCc1ccccn1)O2	-	-22.85
Cc1cccc(C(=O)N2C[C@@H]3OCCN(CCN4CCCC4)[C@@H]3C2)n1	16.42	-
CC(C)N1C[C@@H](F)[C@@H](OCc2nc3ncccc3[nH]2)C1	10.51	-4.12
Cc1ccc(C(=O)N2C[C@@H](OCC3CCOCC3)[C@H]3OCCC[C@H]32)o1	9.013	-
Cc1cnn(CCCOc2ccc3c(c2)OCO3)c1	13.77	13.16
Cc1nc(C2CCCN2Cc2cc(=O)n(C)c(=O)n2C)no1 (centres unmarked)	1.445	-4.858
CC(C)SCc1cccc(NC(=O)NCCc2nnc[nH]2)c1	12.59	-28.12
O=C(c1csnn1)N1CCc2[nH]nc(COc3cccc(Cl)c3)c2C1	7.617	-5.233
c1cnn(CC2CN(CC3CCCCC3)CCO2)c1 (centres unmarked)	18.03	6.255
c1ccc(OC[C@@H]2CCC[C@@]23CNCCO3)nc1	0.3367	-
Cc1nc(CN2CCc3ncnc(-c4ccncc4)c3CC2)cs1.O=C(O)C(F)(F)F.O=C(O)C(F)(F)F	-	-25.83
O=C(CCCN1CCCCC1)NC(C(=O)O)c1ccc(Cl)cc1 (centres unmarked)	12.61	3.728
CC(C)c1n[nH]c(C2CN(Cc3ccno3)CCO2)n1 (centres unmarked)	14.24	-3.288
Cc1cscc1C(=O)N1CCCC1CC(=O)c1cnn(C)c1 (centres unmarked)	21.08	-1.932
c1ccc(Oc2ccc(OC34CCCN(CC3)C4)cc2)cc1 (centres unmarked)	23.35	98.13
CC(C)N1CCCn2nc(C(=O)NCCc3ccccn3)cc2C1	13.77	-18.93
Cc1csc(NCC(=O)c2c[nH]c3ccccc23)n1	13.48	-
Cn1cc(C2=NOC(C(=O)NC3(c4ccccc4)CCCC3)C2)cn1 (centres unmarked)	9.969	-5.362
CCc1nnc(CN2CCCC(Cn3nc(C)nc3C)C2)o1 (centres unmarked)	2.122	-15.89
Clc1ccc(-c2nnc([C@H]3CCN(C4CCCCC4)C3)o2)cc1	-2.373	11.23
[H][C@@]12C[C@H](c3nc(C)no3)CN(S(=O)(=O)CCC)[C@]1([H])CCO2	-	-4.12
CCOCCC(=O)N1CCCC(c2cc(C(F)(F)F)[nH]n2)C1 (centres unmarked)	8.192	9.478
CCSc1nnc(N2CCN(c3ccccc3)CC2)s1	11.18	17.22
COc1ccc(Cl)cc1-n1cnc(CCNC(C)=O)c1	14.08	3.281
COc1cc(C2CC(=O)Nc3c2cnn3C)ccc1O (centres unmarked)	2.011	11.7
Cc1[nH]c(=O)[nH]c(=O)c1CC(=O)N1CCC(Oc2ccc(F)cc2)CC1	19.16	14.65
CN(C)C(=O)CN1C[C@H]2CCN(C(=O)c3ccncc3)CC[C@H]2S1(=O)=O	9.929	-
O=C(Cn1ccc2ccc(F)cc21)NCc1ccc(C(=O)O)cc1	-0.5831	5.428
CCCn1nc(C)c(CN(CCN(C)C)Cc2ccccn2)c1C	4.762	-10.85
COc1cccc(OCC2CCCN(Cc3ncc[nH]3)C2)c1 (centres unmarked)	3.881	-1.139
CCNC(=O)[C@@H]1CCCN1[C@@H](C(=O)NC)c1ccccc1OC	8.795	-
CC1CN(C(=O)CN(Cc2ccco2)Cc2cccs2)CCO1 (centres unmarked)	24.86	10.48
CCn1nnc2c1C(COCCN(C)C)CN(Cc1ccc(C)s1)C2.O=C(O)C(F)(F)F.O=C(O)C(F)(F)F (centres unmarked)	-	4.128
CCCNC(=O)CCOc1cccc(F)c1	11.05	6.889
Cn1cc(CN2CCCC23CCN(C(=O)c2cccn2C)CC3)cn1.O=C(O)C(F)(F)F	-	0.7277
COCCn1c2c(ccc1=O)CCN(C(=O)Cc1cccs1)CC2	-4.396	35.28
CC(CNC(=O)N1CCN(Cc2ccon2)CC1)Cc1cccs1 (centres unmarked)	-	-4.114
C[C@@H]1C[C@H](C(F)(F)F)n2nc(C3CCN(S(=O)(=O)N(C)C)CC3)cc2N1	11.65	6.867
O=C(Cc1ccccc1Cl)N1CCN(CC(O)COCCO)CC1 (centres unmarked)	17.37	-3.924
CC(C)Cc1cc(NC(=O)c2ccccn2)n(C)n1	17.95	64.59
Cl.Cl.[H][C@@]12OCCC[C@]1([H])NC[C@H]2NC(=O)c1cccnc1	-	-32.33

Some entries from above, unchanged:

structure,A,B
CCNC(=O)[C@@H]1CCCN1[C@@H](C(=O)NC)c1ccccc1OC,8.795,-
COc1cc(C2CC(=O)Nc3c2cnn3C)ccc1O (centres unmarked),2.011,11.7
CCSc1nnc(N2CCN(c3ccccc3)CC2)s1,11.18,17.22
CCCC1(CO)CCCN(c2ncnc3c2c(C)nn3C)C1 (centres unmarked),11.76,-6.492
C[C@@H]1C[C@H](C(F)(F)F)n2nc(C3CCN(S(=O)(=O)N(C)C)CC3)cc2N1,11.65,6.867
CC(C)c1n[nH]c(C2CN(Cc3ccno3)CCO2)n1 (centres unmarked),14.24,-3.288
Cc1nc(CN2CCc3ncnc(-c4ccncc4)c3CC2)cs1.O=C(O)C(F)(F)F.O=C(O)C(F)(F)F,-,-25.83
COCC(=O)N1CCC2(CC1)COc1ccccc1S(=O)(=O)N(C)C2,13.2,-33.67